According to the supplement of paper PMC10849652:
The list shows a part of the results.

Protein sequences, listed by entry. Tags and fused reporters are not part of them. Lines headed by an entry give the natural chain unless they say otherwise; changes in a name come on top.
UniProt Q9H497: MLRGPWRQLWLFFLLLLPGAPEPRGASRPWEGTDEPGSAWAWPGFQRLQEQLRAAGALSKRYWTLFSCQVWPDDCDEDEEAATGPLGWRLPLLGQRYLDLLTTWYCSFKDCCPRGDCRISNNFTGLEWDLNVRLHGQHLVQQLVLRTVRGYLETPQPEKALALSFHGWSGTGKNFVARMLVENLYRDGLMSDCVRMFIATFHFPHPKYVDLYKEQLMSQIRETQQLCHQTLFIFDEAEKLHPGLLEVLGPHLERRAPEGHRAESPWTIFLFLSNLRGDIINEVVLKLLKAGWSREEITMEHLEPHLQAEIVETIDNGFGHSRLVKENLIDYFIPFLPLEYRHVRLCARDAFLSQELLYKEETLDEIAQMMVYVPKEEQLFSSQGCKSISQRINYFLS
UniProt O43399: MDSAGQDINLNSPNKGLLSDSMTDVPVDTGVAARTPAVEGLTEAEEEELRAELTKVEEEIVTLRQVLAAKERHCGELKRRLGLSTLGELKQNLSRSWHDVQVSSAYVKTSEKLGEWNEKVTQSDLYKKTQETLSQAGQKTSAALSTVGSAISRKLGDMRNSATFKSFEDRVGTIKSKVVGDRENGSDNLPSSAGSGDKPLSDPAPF
UniProt Q13595: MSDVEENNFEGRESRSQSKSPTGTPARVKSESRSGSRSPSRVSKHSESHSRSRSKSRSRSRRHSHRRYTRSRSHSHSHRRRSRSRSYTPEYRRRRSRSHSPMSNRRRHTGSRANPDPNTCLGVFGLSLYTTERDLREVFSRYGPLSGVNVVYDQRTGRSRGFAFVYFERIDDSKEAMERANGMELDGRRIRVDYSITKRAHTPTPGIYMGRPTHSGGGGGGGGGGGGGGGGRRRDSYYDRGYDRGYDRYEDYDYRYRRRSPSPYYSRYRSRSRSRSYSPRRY
UniProt O60784, whole entry, looked up: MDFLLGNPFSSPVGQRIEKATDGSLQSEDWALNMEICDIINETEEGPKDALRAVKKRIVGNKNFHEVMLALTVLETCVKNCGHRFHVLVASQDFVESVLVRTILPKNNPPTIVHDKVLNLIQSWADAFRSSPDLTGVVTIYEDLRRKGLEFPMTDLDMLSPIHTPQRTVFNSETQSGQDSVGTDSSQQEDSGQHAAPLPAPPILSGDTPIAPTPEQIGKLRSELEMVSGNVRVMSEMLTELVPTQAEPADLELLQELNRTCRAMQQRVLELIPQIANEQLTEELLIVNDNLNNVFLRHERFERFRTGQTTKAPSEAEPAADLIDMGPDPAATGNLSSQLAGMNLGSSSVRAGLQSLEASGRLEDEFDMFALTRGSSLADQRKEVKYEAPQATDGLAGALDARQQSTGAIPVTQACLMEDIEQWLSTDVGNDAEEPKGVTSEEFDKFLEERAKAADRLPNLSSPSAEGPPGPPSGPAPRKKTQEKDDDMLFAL
UniProt Q5BJF2, whole entry, looked up: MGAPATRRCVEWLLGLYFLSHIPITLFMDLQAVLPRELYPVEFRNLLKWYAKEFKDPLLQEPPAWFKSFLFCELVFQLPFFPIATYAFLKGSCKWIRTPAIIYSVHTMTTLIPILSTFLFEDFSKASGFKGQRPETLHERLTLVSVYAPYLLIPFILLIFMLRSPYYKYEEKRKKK
UniProt Q96MH6: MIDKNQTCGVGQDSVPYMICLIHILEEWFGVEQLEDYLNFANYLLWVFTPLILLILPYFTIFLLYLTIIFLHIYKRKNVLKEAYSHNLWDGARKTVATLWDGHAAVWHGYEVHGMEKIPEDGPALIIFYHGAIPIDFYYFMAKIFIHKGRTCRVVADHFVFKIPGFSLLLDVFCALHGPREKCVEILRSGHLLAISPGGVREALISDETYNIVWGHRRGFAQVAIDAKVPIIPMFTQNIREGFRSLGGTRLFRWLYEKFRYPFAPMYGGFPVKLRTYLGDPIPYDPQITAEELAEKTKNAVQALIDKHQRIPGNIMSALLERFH
UniProt Q9ULW0, whole entry, looked up: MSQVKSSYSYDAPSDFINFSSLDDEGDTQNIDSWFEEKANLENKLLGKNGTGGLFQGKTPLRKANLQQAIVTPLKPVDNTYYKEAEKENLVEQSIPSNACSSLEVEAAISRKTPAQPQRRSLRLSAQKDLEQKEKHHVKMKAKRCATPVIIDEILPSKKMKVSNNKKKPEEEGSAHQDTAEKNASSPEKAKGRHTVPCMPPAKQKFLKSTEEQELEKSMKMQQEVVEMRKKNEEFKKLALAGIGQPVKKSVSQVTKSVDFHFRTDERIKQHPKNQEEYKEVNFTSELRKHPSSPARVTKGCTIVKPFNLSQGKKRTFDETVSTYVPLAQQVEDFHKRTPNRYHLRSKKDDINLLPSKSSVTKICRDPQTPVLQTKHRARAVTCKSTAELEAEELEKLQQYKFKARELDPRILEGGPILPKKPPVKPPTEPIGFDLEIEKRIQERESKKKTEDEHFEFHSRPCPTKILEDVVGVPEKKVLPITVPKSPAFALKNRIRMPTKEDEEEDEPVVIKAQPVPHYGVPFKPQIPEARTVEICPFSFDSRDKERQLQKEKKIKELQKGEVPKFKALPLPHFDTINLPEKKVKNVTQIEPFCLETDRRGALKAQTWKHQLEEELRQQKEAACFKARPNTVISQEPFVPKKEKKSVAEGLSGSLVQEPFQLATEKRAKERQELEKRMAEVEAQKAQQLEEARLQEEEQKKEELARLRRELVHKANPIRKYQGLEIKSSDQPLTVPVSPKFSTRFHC
UniProt P11387: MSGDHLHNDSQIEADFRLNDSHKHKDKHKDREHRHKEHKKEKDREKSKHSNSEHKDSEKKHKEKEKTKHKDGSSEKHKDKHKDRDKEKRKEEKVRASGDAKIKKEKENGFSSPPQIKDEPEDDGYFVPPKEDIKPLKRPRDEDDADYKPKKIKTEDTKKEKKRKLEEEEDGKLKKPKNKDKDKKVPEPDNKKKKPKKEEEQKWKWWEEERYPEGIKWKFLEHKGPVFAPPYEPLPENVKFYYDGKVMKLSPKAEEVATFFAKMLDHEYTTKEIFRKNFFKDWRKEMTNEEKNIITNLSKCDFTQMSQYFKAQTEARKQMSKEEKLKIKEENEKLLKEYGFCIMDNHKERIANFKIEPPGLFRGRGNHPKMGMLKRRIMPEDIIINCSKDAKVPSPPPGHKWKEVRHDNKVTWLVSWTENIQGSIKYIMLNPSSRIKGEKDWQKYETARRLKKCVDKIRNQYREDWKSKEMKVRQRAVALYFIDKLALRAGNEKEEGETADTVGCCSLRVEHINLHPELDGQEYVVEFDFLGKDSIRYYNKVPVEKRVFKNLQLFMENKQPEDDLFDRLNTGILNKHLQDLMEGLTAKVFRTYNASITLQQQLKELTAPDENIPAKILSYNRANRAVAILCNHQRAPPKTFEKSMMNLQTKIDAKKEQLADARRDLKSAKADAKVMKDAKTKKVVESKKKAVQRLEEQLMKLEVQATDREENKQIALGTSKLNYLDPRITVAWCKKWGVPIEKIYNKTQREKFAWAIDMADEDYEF
UniProt Q15025: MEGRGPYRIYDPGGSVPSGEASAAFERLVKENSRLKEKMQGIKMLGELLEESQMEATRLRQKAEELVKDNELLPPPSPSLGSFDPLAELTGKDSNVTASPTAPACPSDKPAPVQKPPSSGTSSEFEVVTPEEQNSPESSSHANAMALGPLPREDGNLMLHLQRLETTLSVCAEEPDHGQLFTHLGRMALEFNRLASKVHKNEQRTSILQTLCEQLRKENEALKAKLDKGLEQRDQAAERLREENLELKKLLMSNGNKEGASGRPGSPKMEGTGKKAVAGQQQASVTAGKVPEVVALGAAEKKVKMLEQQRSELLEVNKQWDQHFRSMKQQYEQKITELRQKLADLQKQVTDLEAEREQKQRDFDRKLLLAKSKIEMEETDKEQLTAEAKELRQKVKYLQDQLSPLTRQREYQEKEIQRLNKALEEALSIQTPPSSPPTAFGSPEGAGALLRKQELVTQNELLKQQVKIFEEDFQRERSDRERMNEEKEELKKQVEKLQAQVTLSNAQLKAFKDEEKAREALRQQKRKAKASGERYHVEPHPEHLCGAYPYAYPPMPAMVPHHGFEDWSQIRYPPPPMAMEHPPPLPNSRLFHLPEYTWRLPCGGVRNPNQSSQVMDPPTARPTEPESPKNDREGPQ
UniProt O94826, whole entry, looked up: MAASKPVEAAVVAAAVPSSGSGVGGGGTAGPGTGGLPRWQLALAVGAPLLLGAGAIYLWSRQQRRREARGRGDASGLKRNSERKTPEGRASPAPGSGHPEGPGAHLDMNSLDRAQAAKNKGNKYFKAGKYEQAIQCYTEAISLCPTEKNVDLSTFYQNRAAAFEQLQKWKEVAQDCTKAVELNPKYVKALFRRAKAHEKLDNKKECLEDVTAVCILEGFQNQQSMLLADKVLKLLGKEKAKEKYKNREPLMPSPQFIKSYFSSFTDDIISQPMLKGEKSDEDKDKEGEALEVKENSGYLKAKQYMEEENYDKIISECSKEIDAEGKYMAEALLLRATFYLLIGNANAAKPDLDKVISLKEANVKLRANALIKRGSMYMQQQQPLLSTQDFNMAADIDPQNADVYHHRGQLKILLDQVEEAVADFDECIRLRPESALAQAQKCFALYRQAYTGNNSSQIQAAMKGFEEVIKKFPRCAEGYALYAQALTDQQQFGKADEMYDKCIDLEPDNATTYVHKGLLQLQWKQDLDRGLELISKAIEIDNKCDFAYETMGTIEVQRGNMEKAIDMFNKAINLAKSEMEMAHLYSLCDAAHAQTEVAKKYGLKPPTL
UniProt Q53FA7: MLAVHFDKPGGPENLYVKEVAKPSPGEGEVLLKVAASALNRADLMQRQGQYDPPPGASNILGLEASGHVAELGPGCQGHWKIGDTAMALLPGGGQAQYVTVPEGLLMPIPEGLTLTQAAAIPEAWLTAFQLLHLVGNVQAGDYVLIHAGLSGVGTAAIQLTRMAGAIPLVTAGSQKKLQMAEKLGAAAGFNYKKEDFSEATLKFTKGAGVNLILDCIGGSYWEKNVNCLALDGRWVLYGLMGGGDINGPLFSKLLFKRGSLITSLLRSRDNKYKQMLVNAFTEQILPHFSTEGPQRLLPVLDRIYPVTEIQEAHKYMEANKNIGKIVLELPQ
UniProt P67936, whole entry, looked up: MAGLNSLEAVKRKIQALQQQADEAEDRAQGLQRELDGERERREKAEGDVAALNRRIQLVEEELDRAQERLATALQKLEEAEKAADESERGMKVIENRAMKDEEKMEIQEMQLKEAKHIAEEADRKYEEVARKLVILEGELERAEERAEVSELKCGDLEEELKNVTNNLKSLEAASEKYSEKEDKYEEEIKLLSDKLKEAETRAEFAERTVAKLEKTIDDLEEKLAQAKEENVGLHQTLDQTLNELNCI
UniProt Q96HA7: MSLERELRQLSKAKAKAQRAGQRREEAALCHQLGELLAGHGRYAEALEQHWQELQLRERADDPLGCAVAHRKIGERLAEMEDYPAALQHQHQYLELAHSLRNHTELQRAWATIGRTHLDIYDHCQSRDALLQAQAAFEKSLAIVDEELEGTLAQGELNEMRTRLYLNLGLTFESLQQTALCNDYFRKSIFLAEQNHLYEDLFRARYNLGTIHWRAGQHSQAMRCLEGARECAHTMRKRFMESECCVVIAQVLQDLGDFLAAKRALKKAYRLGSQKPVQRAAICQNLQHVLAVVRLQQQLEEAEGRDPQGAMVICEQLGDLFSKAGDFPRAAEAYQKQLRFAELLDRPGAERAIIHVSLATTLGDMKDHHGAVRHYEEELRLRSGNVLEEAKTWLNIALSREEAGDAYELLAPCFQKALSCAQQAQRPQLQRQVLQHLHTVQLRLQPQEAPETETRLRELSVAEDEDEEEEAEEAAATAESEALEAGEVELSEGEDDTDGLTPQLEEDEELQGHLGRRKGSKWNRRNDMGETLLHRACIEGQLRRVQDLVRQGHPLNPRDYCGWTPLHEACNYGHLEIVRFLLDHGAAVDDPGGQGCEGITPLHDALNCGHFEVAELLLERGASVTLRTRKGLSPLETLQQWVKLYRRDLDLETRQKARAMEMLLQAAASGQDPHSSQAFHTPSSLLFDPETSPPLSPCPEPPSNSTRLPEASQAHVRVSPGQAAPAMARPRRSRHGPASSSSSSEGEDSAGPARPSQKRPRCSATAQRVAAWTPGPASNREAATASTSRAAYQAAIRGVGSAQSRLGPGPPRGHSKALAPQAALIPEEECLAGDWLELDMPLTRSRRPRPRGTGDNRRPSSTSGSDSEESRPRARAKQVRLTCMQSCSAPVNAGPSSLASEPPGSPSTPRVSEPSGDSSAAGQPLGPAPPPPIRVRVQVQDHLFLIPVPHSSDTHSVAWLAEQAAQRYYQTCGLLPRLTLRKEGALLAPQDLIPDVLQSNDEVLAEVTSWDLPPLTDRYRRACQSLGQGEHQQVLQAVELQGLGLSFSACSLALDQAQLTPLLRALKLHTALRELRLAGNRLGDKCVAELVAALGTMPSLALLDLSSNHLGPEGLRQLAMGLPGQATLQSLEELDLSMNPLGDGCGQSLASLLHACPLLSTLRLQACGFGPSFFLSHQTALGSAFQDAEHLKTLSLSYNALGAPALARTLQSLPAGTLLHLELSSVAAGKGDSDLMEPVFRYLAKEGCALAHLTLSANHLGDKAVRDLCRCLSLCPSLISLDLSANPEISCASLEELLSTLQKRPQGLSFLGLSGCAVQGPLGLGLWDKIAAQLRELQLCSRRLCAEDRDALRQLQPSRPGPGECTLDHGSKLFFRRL

These targets were tested with CCN(CCCOc1ccc2c(Nc3cc(CC(=O)Nc4cccc(F)c4)[nH]n3)ncnc2c1)CCOP(=O)(O)O [barasertib] (assay: log2 fold change, soluble protein after heating vs DMSO (PISA); higher = thermal stabilisation; K562 lysate, 10 uM; active = over 0.2 and 3.5 SD of the protein, either way, in both replicates (recomputed)).
In short: (§1)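 K562 pellets were dounce-homogenised in PBS pH 7.4 with 1 mM MgCl2, and the crude extract at 1 mg/mL protein was treated with 10 μM compound for 30 min. Aliquots were heated for 3 min across 48°C-58°C, pooled, and brought to 0.5% NP-40 at 4°C; soluble protein was the supernatant after 21,000xg for 90 min. Soluble protein was quantified by TMTpro 16plex LC-MS/MS with channel sums equalised, and reported as log2 fold change in thermal stability against DMSO controls, with values from duplicates.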
For TMX3 (UniProt Q96JJ7), the log2 fold change was inactive: 0.026. For TOR3A (UniProt Q9H497), the log2 fold change was inactive: -0.031. With TMEM63B (UniProt Q5T3F8) the log2 fold change was inactive: -0.062. TPP2 (UniProt P29144) was tested, and the log2 fold change was inactive: -0.024. In the case of TPP1 (UniProt O14773), the log2 fold change was inactive: 0.026. For TNIK isoform 4 (UniProt Q9UKE5), the log2 fold change was inactive: -0.034. In the case of TPD52L2 isoform 7 (UniProt O43399), the log2 fold change was inactive: 0.045. With TMEM38B (UniProt Q9NVV0) the log2 fold change was inactive: -0.001. In the case of TRA2A (UniProt Q13595), the log2 fold change was inactive: -0.194. For TOMM22 (UniProt Q9NS69), the log2 fold change was inactive: 0.062. TPM1 isoform 4 (UniProt P09493) was tested, and the log2 fold change was inactive: -0.036. In the case of TOM1 isoform 2 (UniProt O60784), the log2 fold change was inactive: 0.022. For TMOD3 (UniProt Q9NYL9), the log2 fold change was inactive: -0.049. For TMEM97 (UniProt Q5BJF2), the log2 fold change was inactive: 0.037. In the case of TMEM68 (UniProt Q96MH6), the log2 fold change was inactive: 0.036. For TPM3 isoform 2 (UniProt P06753), the log2 fold change was inactive: -0.016. With TPX2 (UniProt Q9ULW0) the log2 fold change was inactive: -0.036. For TOP1 (UniProt P11387), the log2 fold change was inactive: 0.024. In the case of TNIP1 (UniProt Q15025), the log2 fold change was inactive: 0.028. With TOMM70 (UniProt O94826) the log2 fold change was inactive: 0.038. For TMEM219 (UniProt Q86XT9), the log2 fold change was inactive: -0.017. With TPMT (UniProt P51580) the log2 fold change was inactive: -0.003. With TP53I3 (UniProt Q53FA7) the log2 fold change was inactive: -0.018. For TPST2 (UniProt O60704), the log2 fold change was inactive: 0.097. TOP2B isoform 2 (UniProt Q02880) was tested, and the log2 fold change was inactive: 0.008. In the case of TPM3 (UniProt P06753), the log2 fold change was inactive: -0.02. With TPM4 isoform 2 (UniProt P67936) the log2 fold change was inactive: 0.021. With TPI1 (UniProt P60174) the log2 fold change was inactive: -0.008. TMEM87B (UniProt Q96K49) was tested, and the log2 fold change was inactive: 0.091. TNFRSF1B (UniProt P20333) was tested, and the log2 fold change was inactive: -0.052. In the case of TMEM245 (UniProt Q9H330), the log2 fold change was inactive: 0.011. With TONSL (UniProt Q96HA7) the log2 fold change was inactive: 0.015. In the case of TMOD1 (UniProt P28289), the log2 fold change was inactive: 0.027.

The targets below were run with CC[C@@H]1C(=O)N(C)c2cnc(Nc3ccc(C(=O)NC4CCN(C)CC4)cc3OC)nc2N1C1CCCC1 in the same assay as above.
In short: as §1
For TMX3 (UniProt Q96JJ7), the log2 fold change was inactive: 0.015. With TOR3A (UniProt Q9H497) the log2 fold change was inactive: -0.013. In the case of TMEM63B (UniProt Q5T3F8), the log2 fold change was inactive: 0.046. In the case of TPP2 (UniProt P29144), the log2 fold change was inactive: -0.016. With TPP1 (UniProt O14773) the log2 fold change was inactive: 0.022. For TNIK isoform 4 (UniProt Q9UKE5), the log2 fold change was inactive: 0.025. TPD52L2 isoform 7 (UniProt O43399) was tested, and the log2 fold change was inactive: 0.048. For TMEM38B (UniProt Q9NVV0), the log2 fold change was inactive: -0.011. For TRA2A (UniProt Q13595), the log2 fold change was inactive: -0.037. With TOMM22 (UniProt Q9NS69) the log2 fold change was inactive: 0.06. TPM1 isoform 4 (UniProt P09493) was tested, and the log2 fold change was inactive: -0.018. With TOM1 isoform 2 (UniProt O60784) the log2 fold change was inactive: 0.046. TMOD3 (UniProt Q9NYL9) was tested, and the log2 fold change was inactive: 0.043. In the case of TMEM97 (UniProt Q5BJF2), the log2 fold change was inactive: 0.028. TMEM68 (UniProt Q96MH6) was tested, and the log2 fold change was inactive: 0.044. TPM3 isoform 2 (UniProt P06753) was tested, and the log2 fold change was inactive: -0.07. In the case of TPX2 (UniProt Q9ULW0), the log2 fold change was inactive: 0.093. With TOP1 (UniProt P11387) the log2 fold change was inactive: -0.021. For TNIP1 (UniProt Q15025), the log2 fold change was inactive: 0.001. TOMM70 (UniProt O94826) was tested, and the log2 fold change was inactive: 0.025. TMEM219 (UniProt Q86XT9) was tested, and the log2 fold change was inactive: -0.228. In the case of TPMT (UniProt P51580), the log2 fold change was inactive: 0.069. In the case of TP53I3 (UniProt Q53FA7), the log2 fold change was inactive: -0.031. With TPST2 (UniProt O60704) the log2 fold change was inactive: 0.075. With TOP2B isoform 2 (UniProt Q02880) the log2 fold change was inactive: -0.037. TPM3 (UniProt P06753) was tested, and the log2 fold change was inactive: 0.043. TPM4 isoform 2 (UniProt P67936) was tested, and the log2 fold change was inactive: 0.052. With TPI1 (UniProt P60174) the log2 fold change was inactive: 0. For TMEM87B (UniProt Q96K49), the log2 fold change was inactive: 0.018. For TNFRSF1B (UniProt P20333), the log2 fold change was inactive: 0.028. With TMEM245 (UniProt Q9H330) the log2 fold change was inactive: 0.05. For TONSL (UniProt Q96HA7), the log2 fold change was inactive: -0.098. In the case of TMOD1 (UniProt P28289), the log2 fold change was inactive: -0.027.

The targets below were run with CC[C@@H]1C(=O)N(C)c2cnc(Nc3ccc(C(=O)N[C@H]4CC[C@H](N5CCN(CC6CC6)CC5)CC4)cc3OC)nc2N1C(C)C [volasertib] in the same assay as above.
In short: as §1
For TMX3 (UniProt Q96JJ7), the log2 fold change was inactive: -0.01. For TOR3A (UniProt Q9H497), the log2 fold change was inactive: -0.05. In the case of TMEM63B (UniProt Q5T3F8), the log2 fold change was inactive: 0.002. TPP2 (UniProt P29144) was tested, and the log2 fold change was inactive: -0.023. TPP1 (UniProt O14773) was tested, and the log2 fold change was inactive: -0.048. In the case of TNIK isoform 4 (UniProt Q9UKE5), the log2 fold change was inactive: 0. In the case of TPD52L2 isoform 7 (UniProt O43399), the log2 fold change was inactive: 0.017. With TMEM38B (UniProt Q9NVV0) the log2 fold change was inactive: -0.007. For TRA2A (UniProt Q13595), the log2 fold change was inactive: -0.052. TOMM22 (UniProt Q9NS69) was tested, and the log2 fold change was inactive: 0.039. For TPM1 isoform 4 (UniProt P09493), the log2 fold change was inactive: 0.033. For TOM1 isoform 2 (UniProt O60784), the log2 fold change was inactive: -0.031. With TMOD3 (UniProt Q9NYL9) the log2 fold change was inactive: 0.01. For TMEM97 (UniProt Q5BJF2), the log2 fold change was inactive: 0.099. With TMEM68 (UniProt Q96MH6) the log2 fold change was inactive: 0. For TPM3 isoform 2 (UniProt P06753), the log2 fold change was inactive: 0.007. TPX2 (UniProt Q9ULW0) was tested, and the log2 fold change was inactive: 0.012. For TOP1 (UniProt P11387), the log2 fold change was inactive: -0.008. TNIP1 (UniProt Q15025) was tested, and the log2 fold change was inactive: 0.04. TOMM70 (UniProt O94826) was tested, and the log2 fold change was inactive: 0.003. In the case of TMEM219 (UniProt Q86XT9), the log2 fold change was inactive: -0.068. For TPMT (UniProt P51580), the log2 fold change was inactive: 0.006. TP53I3 (UniProt Q53FA7) was tested, and the log2 fold change was inactive: 0.015. With TPST2 (UniProt O60704) the log2 fold change was inactive: -0.024. For TOP2B isoform 2 (UniProt Q02880), the log2 fold change was inactive: -0.007. TPM3 (UniProt P06753) was tested, and the log2 fold change was inactive: 0.021. With TPM4 isoform 2 (UniProt P67936) the log2 fold change was inactive: 0.005. For TPI1 (UniProt P60174), the log2 fold change was inactive: 0.031. With TMEM87B (UniProt Q96K49) the log2 fold change was inactive: 0.005. For TNFRSF1B (UniProt P20333), the log2 fold change was inactive: 0.108. For TMEM245 (UniProt Q9H330), the log2 fold change was inactive: 0.025. For TONSL (UniProt Q96HA7), the log2 fold change was inactive: -0.099. With TMOD1 (UniProt P28289) the log2 fold change was inactive: -0.031.
